Data as given in PubChem BioAssay AID652272 (Drosophila RNAi Screening Center, 2013)
Assay: 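Genome-wide knock-down search for components of Hedgehog signalling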 (primary screen). Cells: Drosophila clone 8 (Cl8) cells. Reagents: long dsRNA against Drosophila genes. Measurement: 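Firefly light from a Hedgehog-responsive ptc promoter reporter and Renilla reference light, both read on a plate reader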. Scale: firefly Hh reporter signal: higher = more ptc reporter light; Renilla reference signal: higher = more Renilla control light. Active means: 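Hit when the z-score averaged over two replicates is under -2 or over +3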. Meaning of the calls: active = hit: reporter lowered or raised; inactive = not a hit.
The deposit covers about 21,000 reagents; this is an unselected part of those that have a named target and a result. In the full data, 503 (2.4%) were called active. 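Raw plate light values, not normalised; calls rest on replicate z-scores that were not deposited; hits include reporter decreases as well as increases.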 Reagents against one gene are numbered here. A plus sign joins genes that one reagent is predicted to hit. Reagent sequences are not shown. Not given: the amount of reagent, the time to read-out.

| gene knocked down | reagent no. | firefly Hh reporter signal, replicate 1 | firefly Hh reporter signal, replicate 2 | firefly Hh reporter signal, replicate 3 | Renilla reference signal, replicate 1 | Renilla reference signal, replicate 2 | Outcome |
| --- | --- | --- | --- | --- | --- | --- | --- |
| CG10993 (GeneID 32344) | 1 | 1.51e5 | 2.64e5 | – | 4858 | 9963 | inactive |
| CG15127 (GeneID 50203) | 1 | 1.28e5 | 3.06e5 | – | 3607 | 11021 | inactive |
| CG15127 (GeneID 50203) | 2 | 1.20e5 | 80073 | – | 3264 | 5060 | inactive |
| ScsbetaG (GeneID 44001) | 1 | 42987 | 55187 | – | 5498 | 4093 | inactive |
| msl-1 (GeneID 35121) | 1 | 63218 | 45005 | – | 1239 | 3784 | inactive |
| CG15517 (GeneID 43537) | 1 | 1.02e5 | 1.84e5 | – | 4072 | 5417 | inactive |
| drk (GeneID 36497) | 1 | 1.30e5 | 91730 | – | 4517 | 2704 | inactive |
| CG32647 (GeneID 326226) | 1 | 88131 | 2.08e5 | – | 2864 | 8498 | inactive |
| CG32647 (GeneID 326226) | 2 | 1.18e5 | 51076 | – | 6715 | 2357 | inactive |
| DIP-epsilon (GeneID 7354433) | 1 | 8.48e5 | 4.28e5 | – | 44837 | 15851 | inactive |
| DIP-epsilon (GeneID 7354433) | 2 | 1.73e5 | 65944 | – | 3988 | 6009 | inactive |
| CG18747 (GeneID 59143) | 1 | 79664 | 84939 | – | 2801 | 2752 | inactive |
| ru (GeneID 44856) | 1 | 64504 | 37748 | – | 2610 | 3098 | inactive |
| CG17147 (GeneID 40216) | 1 | 1.09e5 | 1.63e5 | – | 3767 | 4939 | inactive |
| CG17712 (GeneID 33356) | 1 | 1.47e5 | 98291 | – | 5864 | 3991 | inactive |
| Pglym78 (GeneID 43447) | 1 | 92992 | 82576 | – | 1794 | 2336 | inactive |
| CG7785 (GeneID 42158) | 1 | 4.95e5 | 65213 | – | 25837 | 1860 | inactive |
| CG3457 (GeneID 31196) | 1 | 98163 | 94151 | – | 2016 | 3060 | inactive |
| CG12289 (GeneID 39279) | 1 | 54322 | 51985 | 55248 | 6209 | 3732 | inactive |
| CG14042 + SP555 | 1 | 63801 | 47373 | – | 1764 | 4333 | inactive |
| CG14042 + SP555 | 2 | 1.56e5 | 74169 | – | 3814 | 7287 | inactive |
| Sps2 (GeneID 34397) | 1 | 96320 | 50054 | – | 2714 | 4800 | inactive |
| Mdr50 (GeneID 36582) | 1 | 1.37e5 | 35906 | – | 3481 | 468 | inactive |
| unc79 (GeneID 42310) | 1 | 98626 | 94544 | – | 4484 | 4166 | inactive |
| Zmynd10 (GeneID 39481) | 1 | 67683 | 33265 | 57584 | 3681 | 4597 | inactive |
| CG4546 (GeneID 41922) | 1 | 1.02e5 | 1.03e5 | – | 1584 | 2355 | inactive |
| Mur89F (GeneID 42080) | 1 | 75408 | 64433 | – | 1975 | 4817 | inactive |
| Datp (GeneID 318908) | 1 | 5.62e5 | 2.02e5 | – | 26435 | 8172 | inactive |
| gish (GeneID 49701) | 1 | 1.15e5 | 81457 | – | 4484 | 3175 | inactive |
| CG15365 (GeneID 31829) | 1 | 31164 | 26264 | – | 2345 | 1050 | inactive |
| Sr-CI (GeneID 33621) | 1 | 5.73e5 | 1.05e5 | – | 4409 | 4409 | inactive |
| GstZ2 (GeneID 41133) | 1 | 1.27e5 | 84685 | – | 5175 | 3218 | inactive |
| CG3308 (GeneID 42527) | 1 | 1.02e5 | 1.14e5 | – | 4387 | 4508 | inactive |
| Cdk4 (GeneID 36854) | 1 | 97489 | 54877 | – | 5890 | 3104 | inactive |
| REPTOR (GeneID 42930) | 1 | 90976 | 1.07e5 | – | 4208 | 3995 | inactive |
| RpL27 (GeneID 43103) | 1 | 2.09e5 | 43056 | – | 16203 | 2871 | active |
| Ir76b (GeneID 40198) | 1 | 91621 | 1.23e5 | – | 2167 | 3540 | inactive |
| Grik (GeneID 42476) | 1 | 88856 | 1.02e5 | – | 5014 | 4076 | inactive |
| Grik (GeneID 42476) | 2 | 5.75e5 | 1.05e5 | – | 28917 | 2425 | inactive |

An excerpt from the list above:
| gene knocked down | reagent no. | firefly Hh reporter signal, replicate 1 | firefly Hh reporter signal, replicate 2 | firefly Hh reporter signal, replicate 3 | Renilla reference signal, replicate 1 | Renilla reference signal, replicate 2 | Outcome |
| --- | --- | --- | --- | --- | --- | --- | --- |
| Sps2 (GeneID 34397) | 1 | 96320 | 50054 | – | 2714 | 4800 | inactive |
| Mdr50 (GeneID 36582) | 1 | 1.37e5 | 35906 | – | 3481 | 468 | inactive |
| unc79 (GeneID 42310) | 1 | 98626 | 94544 | – | 4484 | 4166 | inactive |
| Zmynd10 (GeneID 39481) | 1 | 67683 | 33265 | 57584 | 3681 | 4597 | inactive |
